{"sequences": {"note": "Protein sequences, listed by entry. Tags and fused reporters are not part of them. Lines headed by an entry give the natural chain unless they say otherwise; changes in a name come on top.", "UniProt Q92993": "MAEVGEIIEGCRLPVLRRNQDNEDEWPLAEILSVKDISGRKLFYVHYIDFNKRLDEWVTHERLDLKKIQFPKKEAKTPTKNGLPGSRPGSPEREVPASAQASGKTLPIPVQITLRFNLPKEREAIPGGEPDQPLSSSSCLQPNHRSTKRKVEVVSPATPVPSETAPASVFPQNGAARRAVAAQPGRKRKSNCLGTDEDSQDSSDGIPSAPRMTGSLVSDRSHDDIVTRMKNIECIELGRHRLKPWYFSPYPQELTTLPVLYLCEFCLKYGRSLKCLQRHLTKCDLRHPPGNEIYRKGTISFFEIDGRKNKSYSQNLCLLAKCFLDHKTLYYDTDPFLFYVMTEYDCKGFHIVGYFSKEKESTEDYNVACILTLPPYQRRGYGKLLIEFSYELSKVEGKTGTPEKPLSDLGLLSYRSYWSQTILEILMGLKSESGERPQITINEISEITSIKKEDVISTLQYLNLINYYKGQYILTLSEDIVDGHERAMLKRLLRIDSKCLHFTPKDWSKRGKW"}, "source": "paper PMC3313078", "molecular_target": "T1, GAL4 DNA-binding domain fusion of SseF 50-66 (S. typhimurium) (UniProt O84951)", "T1 sequence": "QIRQQRDYAIHFMQYTI", "experiment": "two-hybrid; direct test in yeast AH109: SseF constructs fused to the GAL4 binding domain, TIP60 isoforms fused to the GAL4 activation domain; growth on -Leu-Trp-His + 15 mM 3-AT, β-galactosidase in Miller units", "note": "No constants are given. Whether binding was seen depends on the method and setting. A result given as binding can be weak or reduced; the word gives no strength. Sequences can lack the tags named with a protein.", "data": [{"substance": "TIP60 fused to the GAL4 activation domain (isoform not named for the SseF deletion series) (from UniProt Q92993)", "values": [{"measurement": "binding", "value": "binds"}]}]}
